The source of these data is PubChem BioAssay AID2685 (National Center for Advancing Translational Sciences (NCATS), 2010).

The other results are listed elsewhere or left out. The main result of the screen is listed elsewhere. These columns were measured beside it and carry no call. The list favours compounds with an active or inconclusive main result. Words in brackets tell the shape of the fitted curve; partial curves, single points and poor fits give uncertain potencies.

The assay can be described thus: qHTS Assay for Lipid Storage Modulators in Drosophila S3 Cells.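 On cell number change: cells counted by Cell Tracker Red CMTPX staining in the red channel.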 Particulars: BODIPY lipid droplet fluorescence, 18-24 h; for cell number change: measured here: cell count max response, cells fed with added oleic acid. An outline of the steps: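 Drosophila S3 cells got compounds at several concentrations plus oleic acid (400 uM solution). Laser-scanning cytometry with 488 nm excitation read lipid droplets at 500-530 nm and cells at 575-640 nm. Percent activity was relative to 20 uM Triacsin C.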
(Quantitative high-throughput screening tests each substance at several concentrations.)

Setting [1] is: measured here: cell number channel AC50, cells fed with added oleic acid.
[2] abbreviates: measured here: lipid fluorescence (Fed channel) AC50, cells fed with added oleic acid.

With `CCC1(C)Cc2nc(Cl)c(C#N)cc2CO1` (configuration not stated), the cell number change was -4.89%. The concentration at half-maximal activity (AC50) under setting [1] is 0.58 µM [falling, full curve]. Moreover, the half-maximal activity concentration (AC50) under setting [2] is 0.731 µM [falling, full curve].

`COc1ccc(F)cc1S(=O)(=O)NC(Cc1ccccc1)C(N)=O` (configuration not stated): the cell number change was -2.3%.

As for `CCN1C(=O)/C(=C\N2CCCCCC2)SC1=S`, the cell number change is -5.47%.

In the case of `COc1ccc(S(=O)(=O)CCc2nnc(NC(C)=O)s2)cc1`, the cell number change is -32.2%. For the same compound, the half-maximal activity concentration (AC50) under setting [1] was 2.31 µM [falling, full curve].

On to `CSc1n[nH]c(NC(=O)c2c(-c3c(Cl)cccc3Cl)noc2C)n1`, for which the cell number change was -4.13%. Besides, the half-maximal activity concentration (AC50) under setting [2] is 0.00461 µM [falling, full curve, poor fit].

For `COc1ccc(-c2csc(NC(=O)CN3C(=O)C4CC=CCC4C3=O)n2)cc1` (configuration not stated), the cell number change was -24.2%. In addition, the AC50 under setting [2] was 32.6 µM [falling, single point].

Turning to `O=C(CCSc1ccccc1)Nc1nc2c(s1)COc1ccccc1-2`, the cell number change came to 35.9%. Also, the concentration at half-maximal activity (AC50) under setting [1] was 14.6 µM [rising, single point].

As for `CN(Cc1ccccc1)C(=O)CCS(=O)(=O)c1cc2c(cc1Cl)NC(=O)CO2`, the cell number change amounted to 1.73%. Under setting [2], the AC50 was 0.116 µM [rising, full curve, poor fit].

For `O=C(Nc1ccncc1)Nc1cccc(Cl)c1Cl`, the cell number change is -13.9%. Moreover, the AC50 under setting [2] is 29.1 µM [rising, single point].

As to `COc1ccc(NC2CCCN(C(=O)c3ccc(OC)o3)C2)cc1` (configuration not stated), the cell number change is 18.8%. For the same compound, the AC50 under setting [1] is 4.61 µM [rising, partial curve, poor fit].

In the case of `COc1cc(C(=O)OCn2nnc3ccccc3c2=O)cc(OC)c1OC`, the cell number change is 56.1%. The AC50 under setting [1] was 2.31 µM [rising, partial curve].

On to `CCn1c2ccccc2c2cc(NC(=O)c3ccco3)ccc21`, for which the cell number change was -8.52%. Besides, under setting [2], the concentration at half-maximal activity (AC50) is 0.461 µM [rising, partial curve].

Regarding `COc1ccccc1C(=O)NC(=S)NNC(=O)c1sc2ccccc2c1Cl`, the cell number change was determined as 31.6%. For the same compound, the concentration at half-maximal activity (AC50) under setting [1] is 3.66 µM [rising, full curve, poor fit]. Further, the AC50 under setting [2] is 3.66 µM [rising, single point].

Consider `Cc1oc2ccc(NS(=O)(=O)c3ccccc3)cc2c1C(=O)Nc1ccccc1`, for which the cell number change is 16.5%. Moreover, the AC50 under setting [2] is 1.3 µM [rising, partial curve, poor fit].

`OC(COc1ccccc1)CSc1ncn[nH]1` (configuration not stated): the cell number change was 2.5%. In addition, the half-maximal activity concentration (AC50) under setting [2] was 0.461 µM [falling, full curve, poor fit].

For the compound `CC(NC(=O)Nc1ccc2c(c1)OCO2)C1CCCO1` (configuration not stated), the cell number change turned out to be 3.37%. Also, the AC50 under setting [2] was 8.2 µM [rising, partial curve].

As for `CN(C)C(=O)c1ccc(NC(=O)COC(=O)Cn2cc(C(F)(F)F)ccc2=O)cc1`, the cell number change came to 4.9%. Also, the AC50 under setting [2] was 29.1 µM [falling, single point].

In the case of `COc1cc(/C=C2\SC(=S)N(CCC(=O)N3CCCCC3)C2=O)cc(OC)c1OC`, the cell number change is -3.81%.

For the compound `O=C(NC(Cc1ccccc1)C(=O)O)OCc1ccccc1` (configuration not stated), the cell number change was 0.775%. Also, the concentration at half-maximal activity (AC50) under setting [2] is 0.411 µM [falling, full curve, poor fit].

In the case of `COc1ccc(CNC(=O)c2ccc(CS(=O)(=O)c3ccc(C)cc3)o2)cc1`, the cell number change was -12.5%.

Regarding `CC1CCCC(NC(=O)CCCn2ncn3c(cc4occc43)c2=O)C1C` (configuration not stated), the cell number change is -9.54%. The AC50 under setting [2] was 18.4 µM [rising, partial curve].

As for `COc1cc(C)ccc1OCc1cc(C(=O)N2CCCCCC2)no1`, the cell number change is -0.216%. For the same compound, under setting [1], the concentration at half-maximal activity (AC50) was 0.517 µM [rising, single point]. For the same compound, the AC50 under setting [2] was 0.517 µM [rising, partial curve, poor fit].

Take `O=C(Nc1nnc(SCc2ccccc2)s1)c1ccco1`: the cell number change was 51%.

As to `COCCOC(=O)c1c(C)n(C)c2ccc(OC(=O)c3c(OC)cccc3OC)cc12`, the cell number change is 14.4%. Also, the AC50 under setting [2] was 29.1 µM [rising, single point].

With `CSc1nnc(CSc2cc(C)nc(N(C)C)n2)o1`, the cell number change was 8.76%. Besides, the AC50 under setting [1] is 0.92 µM [rising, full curve, poor fit]. In addition, the concentration at half-maximal activity (AC50) under setting [2] was 1.16 µM [rising, partial curve].

As for `O=C(N/N=C\CCc1ccccc1)c1ccco1`, the cell number change stood at 30.5%. Further, the AC50 under setting [1] is 9.2 µM [rising, partial curve, poor fit].

For the compound `COc1ccc(-c2sc(NC(C)=O)nc2-c2ccccc2)cc1`, the cell number change came to 16.8%. Also, the AC50 under setting [2] was 1.64 µM [rising, full curve, poor fit].

Take `CCCC(=O)Nc1nnc(SCC(=O)Nc2ccc3c(c2)OCO3)s1`: the cell number change was found to be 170%. Also, the AC50 under setting [1] was 29.1 µM [rising, single point].

With `CCOC(=O)N1CCN(C(=O)CSCC(=O)Nc2nc(-c3ccc(OC)cc3)cs2)CC1`, the AC50 runs as follows: under setting [1], 1.84 µM [rising, partial curve]; under setting [2], 1.46 µM [rising, partial curve].

Regarding `Cc1[nH]c2ccccc2c1/C=N/Nc1nc(Nc2ccccc2)nc(N2CCOCC2)n1`, the cell number change is -50.2%. Also, the AC50 under setting [1] is 7.31 µM [falling, partial curve]. Also, the concentration at half-maximal activity (AC50) under setting [2] was 2.59 µM [falling, full curve].

For the compound `N#C/C(=C\c1cccs1)c1nc2ccccc2[nH]1`, the cell number change stood at 25.7%. Further, the concentration at half-maximal activity (AC50) under setting [2] was 2.06 µM [rising, partial curve].

With `COc1ccccc1N(CC(=O)Nc1ccc2c(c1)OCCO2)S(C)(=O)=O`, the cell number change came out at 5.89%. Also, the AC50 under setting [2] is 29.1 µM [falling, single point].

`Nc1nc(Nc2ccccc2F)nc(NC2CCCCC2)c1[N+](=O)[O-]`: the cell number change was -51%. The concentration at half-maximal activity (AC50) under setting [1] is 20.6 µM [falling, single point]. Besides, under setting [2], the half-maximal activity concentration (AC50) is 7.31 µM [falling, single point].

In the case of `CN(CC(=O)Nc1cccc(F)c1)C(=O)c1ccc2c(c1)S(=O)(=O)N=C1CCCCCN12`, the cell number change was found to be 75%. The half-maximal activity concentration (AC50) under setting [1] was 11.6 µM [rising, partial curve].

Regarding `Cc1onc(-c2ccccc2)c1C(=O)Nc1nnc(C(C)(C)C)s1`, the cell number change is -24.6%. Moreover, the AC50 under setting [2] was 29.1 µM [rising, single point].

For `COc1cccc(-c2nc3ccccc3c(=O)n2NC(=O)c2cccnc2Cl)c1`, the cell number change amounted to 4.79%. The AC50 under setting [2] was 0.259 µM [rising, full curve, poor fit].

As to `CCCn1c(=O)c(C(=O)NCCCc2ccccc2)c(O)c2ccccc21`, the cell number change was -12.9%. Further, the AC50 under setting [2] was 0.651 µM [rising, single point].

As for `CCn1cc(/C=C(\NC(=O)c2ccccc2F)C(=O)NCCCN2CCOCC2)c2ccccc21`, the AC50 under setting [2] was 2.06 µM [falling, partial curve].

Consider `O=C(NCCc1ccccc1Cl)C1CCC(=O)N(Cc2cccc(C(F)(F)F)c2)C1` (configuration not stated), for which the cell number change was -11.7%. For the same compound, under setting [2], the AC50 was 7.31 µM [falling, partial curve, poor fit].

As for `COc1ccc(CN(C(=O)CSc2nnc(-c3ccc(F)cc3)o2)c2ccc(F)cc2)cc1`, the cell number change is 3.81%. In addition, under setting [2], the half-maximal activity concentration (AC50) is 7.31 µM [rising, partial curve, poor fit].

On to `Cc1ccc(OCCCCn2c(CO)nc3ccccc32)cc1`, for which the cell number change was -32.3%. Also, the AC50 under setting [1] was 18.4 µM [falling, single point]. Under setting [2], the AC50 is 29.1 µM [falling, single point].

Take `CCN=c1scc(-c2cccs2)n1/N=C/c1cc(OC)ccc1O`: the cell number change was -33.2%. The AC50 under setting [1] was 29.1 µM [falling, single point]. In addition, under setting [2], the concentration at half-maximal activity (AC50) is 0.231 µM [falling, full curve, poor fit].

For the compound `O=C1N/C(=N/N=C/c2ccc(O)cc2)SC1Cc1ccccc1` (configuration not stated), the cell number change was found to be 23.5%.

For the compound `COc1ccc(C(=O)c2cnc(/N=C/N(C)C)s2)cc1`, the concentration at half-maximal activity (AC50) runs as follows: under setting [1], 0.092 µM [rising, full curve, poor fit]; under setting [2], 5.17 µM [rising, single point].

In the case of `Cc1ccc(C(=O)N2CCN(c3ccc(C(F)(F)F)cn3)CC2)cc1`, the cell number change is -9.62%. Also, the concentration at half-maximal activity (AC50) under setting [1] was 6.51 µM [falling, single point].

As for `C=CCn1c(SCC(=O)N2CCN(CCO)CC2)nc2sc3c(c2c1=O)CCC3`, the cell number change came to 7.62%.

With `CCOC(=O)c1ccc(NC(=S)N2CCSC2c2c(F)cc(F)cc2F)cc1` (configuration not stated), the cell number change worked out at 27.4%. Moreover, the concentration at half-maximal activity (AC50) under setting [1] was 0.58 µM [rising, full curve, poor fit].

With `CC1(C)CC(=O)C=C(c2cccc(Cl)c2O)C1`, the cell number change is -34.5%. Further, under setting [1], the AC50 was 10.3 µM [falling, partial curve].

For `COC(=O)C1=CN(Cc2ccc(OC)c(OC)c2)C=C(C(=O)OC)C1c1cccc(O)c1`, the cell number change was determined as 14%. For the same compound, the AC50 under setting [2] was 6.51 µM [rising, partial curve, poor fit].

In the case of `CCn1c(SCc2cccc(C(=O)O)c2)nnc1-c1ccccc1`, the cell number change was -20%. Also, the half-maximal activity concentration (AC50) under setting [2] was 23.1 µM [falling, single point].

`CCOc1nc(OCC)nc(-n2cc(-c3ccccc3)nn2)n1`: the cell number change was 18.3%. Moreover, the half-maximal activity concentration (AC50) under setting [2] is 1.84 µM [rising, full curve].

Turning to `O=C(NCC(c1ccco1)N1CCCCC1)c1ccc(COc2ccccc2)cc1` (configuration not stated), the cell number change turned out to be 124%. Besides, the half-maximal activity concentration (AC50) under setting [1] is 23.1 µM [rising, single point].

On to `O=C1CCCCN1CCC(=O)N1CCCC(Nc2ccccc2)C1` (configuration not stated), for which the cell number change is 12.6%. Under setting [2], the AC50 was 20.6 µM [falling, partial curve].

As for `Clc1ccc(/C=N/Nc2nnc(-c3ncc[nH]3)c3ccccc23)cc1`, the cell number change was -13.9%. Under setting [2], the AC50 was 29.1 µM [falling, single point].

Consider `Cc1cc(C)nc(SCC(=O)NC2=NN=C(c3ccc(Br)cc3)CS2)n1`, for which the cell number change was -23.7%. In addition, the half-maximal activity concentration (AC50) under setting [2] is 23.1 µM [falling, single point].

`Cc1ccn2cc(CNC(=O)c3ccc(Br)o3)nc2c1`: the cell number change is 69%. The AC50 under setting [1] is 2.06 µM [rising, full curve].

For the compound `CCOC(=O)Cc1csc(NC(=O)c2ccco2)n1`, the cell number change was found to be 128%. The AC50 under setting [1] is 29.1 µM [rising, single point].

For `CCc1ccc(C(=O)NC(=S)NCc2cccnc2)cc1`, the cell number change is -19.5%.

For the compound `O=C(COc1ccc(S(=O)(=O)N2CCOCC2)cc1)NCCCn1ccnc1`, the cell number change came to 1.9%. Under setting [2], the AC50 is 29.1 µM [falling, single point].

`Cc1nn2c(-n3ccnc3)c3c(nc2c1-c1ccccc1)CCC3`: the cell number change came out at 32.7%. In addition, the concentration at half-maximal activity (AC50) under setting [1] was 32.6 µM [rising, single point].

Take `Cc1ccc(CN(C)C(=O)c2ccc(NS(=O)(=O)c3ccc4[nH]c(=O)[nH]c4c3)cc2)cc1`: the cell number change is -50%. Besides, the AC50 under setting [1] is 25.9 µM [falling, single point]. Further, under setting [2], the AC50 was 2.31 µM [rising, single point].

What is called AC50 is the concentration at which the activity in the assay is half-maximal. A higher AC50 goes with activity only at high concentration.
